Consider 2 substances from publication PMC8789930.

Protein sequences, listed by entry. Tags and fused reporters are not part of them.
UniProt P13010: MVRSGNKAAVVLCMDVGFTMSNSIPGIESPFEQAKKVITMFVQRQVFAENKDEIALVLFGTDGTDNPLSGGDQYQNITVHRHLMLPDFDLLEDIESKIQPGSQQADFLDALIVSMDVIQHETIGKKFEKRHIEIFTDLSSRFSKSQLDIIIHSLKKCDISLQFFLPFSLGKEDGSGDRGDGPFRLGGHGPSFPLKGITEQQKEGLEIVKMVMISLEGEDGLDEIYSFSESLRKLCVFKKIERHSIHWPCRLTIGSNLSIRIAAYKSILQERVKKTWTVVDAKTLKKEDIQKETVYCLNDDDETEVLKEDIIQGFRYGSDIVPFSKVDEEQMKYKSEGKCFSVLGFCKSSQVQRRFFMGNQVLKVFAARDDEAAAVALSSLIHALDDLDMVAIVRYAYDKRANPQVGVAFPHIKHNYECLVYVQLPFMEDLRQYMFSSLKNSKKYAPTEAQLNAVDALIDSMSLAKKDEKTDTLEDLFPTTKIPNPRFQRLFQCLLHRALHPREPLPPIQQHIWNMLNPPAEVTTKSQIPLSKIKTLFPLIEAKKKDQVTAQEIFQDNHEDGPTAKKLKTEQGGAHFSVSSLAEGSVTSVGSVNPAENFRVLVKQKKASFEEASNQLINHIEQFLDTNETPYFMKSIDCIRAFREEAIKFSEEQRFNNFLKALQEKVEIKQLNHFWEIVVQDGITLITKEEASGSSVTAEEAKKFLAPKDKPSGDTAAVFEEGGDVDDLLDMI
UniProt Q14258: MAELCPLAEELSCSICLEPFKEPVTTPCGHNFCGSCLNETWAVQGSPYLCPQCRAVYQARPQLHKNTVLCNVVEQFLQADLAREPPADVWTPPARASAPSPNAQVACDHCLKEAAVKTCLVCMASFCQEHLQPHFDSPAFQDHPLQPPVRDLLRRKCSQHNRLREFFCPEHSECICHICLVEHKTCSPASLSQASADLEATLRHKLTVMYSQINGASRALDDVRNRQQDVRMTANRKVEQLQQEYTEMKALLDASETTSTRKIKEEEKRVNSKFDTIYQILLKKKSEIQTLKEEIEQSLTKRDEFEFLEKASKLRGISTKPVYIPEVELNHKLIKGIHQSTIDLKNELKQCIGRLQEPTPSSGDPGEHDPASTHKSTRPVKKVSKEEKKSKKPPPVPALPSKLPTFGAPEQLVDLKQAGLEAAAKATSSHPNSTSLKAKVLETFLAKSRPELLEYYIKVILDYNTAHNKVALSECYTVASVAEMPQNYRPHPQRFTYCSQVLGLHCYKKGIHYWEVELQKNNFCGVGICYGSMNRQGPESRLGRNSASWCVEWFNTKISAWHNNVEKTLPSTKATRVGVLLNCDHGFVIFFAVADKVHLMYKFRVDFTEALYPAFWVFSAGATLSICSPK

These are yes or no findings as the source states them, for the method shown. In cells and extracts the contact can be indirect. Here binding means that the protein was enriched with, or labelled near, the bait; the list need not be complete. Tags and fused reporters may be left off the sequences shown.

The target in this assay is T1, HA-USP44 (UniProt Q9H0E7).
T1 sequence: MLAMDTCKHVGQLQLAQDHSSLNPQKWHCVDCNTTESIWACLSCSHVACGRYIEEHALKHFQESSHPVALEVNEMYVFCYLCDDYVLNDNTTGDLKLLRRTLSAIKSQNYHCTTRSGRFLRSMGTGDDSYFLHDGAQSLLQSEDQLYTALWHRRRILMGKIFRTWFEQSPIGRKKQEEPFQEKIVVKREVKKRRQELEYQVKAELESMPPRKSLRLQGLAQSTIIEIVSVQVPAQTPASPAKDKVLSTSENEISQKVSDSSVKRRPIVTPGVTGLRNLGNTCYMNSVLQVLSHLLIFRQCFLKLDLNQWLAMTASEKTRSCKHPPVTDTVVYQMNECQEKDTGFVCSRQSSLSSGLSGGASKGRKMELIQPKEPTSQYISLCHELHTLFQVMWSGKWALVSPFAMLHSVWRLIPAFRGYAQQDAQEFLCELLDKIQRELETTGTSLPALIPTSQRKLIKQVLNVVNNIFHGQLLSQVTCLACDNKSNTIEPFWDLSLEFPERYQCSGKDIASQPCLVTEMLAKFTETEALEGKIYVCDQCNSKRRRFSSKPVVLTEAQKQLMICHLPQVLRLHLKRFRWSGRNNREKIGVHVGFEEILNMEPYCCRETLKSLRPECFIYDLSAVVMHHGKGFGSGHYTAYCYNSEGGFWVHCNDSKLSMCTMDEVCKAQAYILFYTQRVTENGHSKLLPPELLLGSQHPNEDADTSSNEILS
Kind of assay: affinity purification with mass spectrometry; anti-HA immunoprecipitate from SUNE1 cells stably overexpressing HA-USP44; SDS-PAGE, Coomassie blue, mass spectrometry.

Turning to “Ku80 (endogenous) (from UniProt P13010 1-732)”, the binding result is “binds”.
The entry for “TRIM25 (endogenous) (from UniProt Q14258 1-630)” is “binds”.
